Experimental data reported in patent US20020168712A1.
These are yes or no findings as the source states them, for the method shown. Some results given as binding are weak or reduced against the parent protein; the word gives no strength. Tags and fused reporters may be left off the sequences shown.

Target: T1, full length membrane-bound human LDCAM on transfected CV1/EBNA cells (human) (UniProt Q9BY67)
T1 sequence: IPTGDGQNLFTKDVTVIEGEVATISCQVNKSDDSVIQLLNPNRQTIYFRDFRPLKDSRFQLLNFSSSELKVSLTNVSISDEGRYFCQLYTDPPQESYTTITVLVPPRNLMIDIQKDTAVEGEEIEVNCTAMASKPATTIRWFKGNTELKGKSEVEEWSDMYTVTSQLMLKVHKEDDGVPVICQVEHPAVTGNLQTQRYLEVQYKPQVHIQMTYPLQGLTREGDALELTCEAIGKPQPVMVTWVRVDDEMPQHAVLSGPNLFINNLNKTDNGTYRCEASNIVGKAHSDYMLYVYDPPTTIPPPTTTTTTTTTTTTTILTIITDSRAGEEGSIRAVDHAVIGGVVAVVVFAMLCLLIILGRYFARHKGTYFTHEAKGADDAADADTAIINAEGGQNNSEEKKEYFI
Assay: cell binding and FACS with LDCAM/Fc fusion protein

binding: binds
B1: human LDCAM/Fc fusion protein (Fc fusion, not shown: a dimerising Fc or GST)
chain: IPTGDGQNLFTKDVTVIEGEVATISCQVNKSDDSVIQLLNPNRQTIYFRDFRPLKDSRFQLLNFSSSELKVSLTNVSISDEGRYFCQLYTDPPQESYTTITVLVPPRNLMIDIQKDTAVEGEEIEVNCTAMASKPATTIRWFKGNTELKGKSEVEEWSDMYTVTSQLMLKVHKEDDGVPVICQVEHPAVTGNLQTQRYLEVQYKPQVHIQMTYPLQGLTREGDALELTCEAIGKPQPVMVTWVRVDDEMPQHAVLSGPNLFINNLNKTDNGTYRCEASNIVGKAHSDYMLYVYDPPTTIPPPTTTTTTTTTTTTTILTIITDSRAGEEGSIRAVDH
modifications: Forms a disulfide-linked dimer through the Fc.
